PMC3432004
Results are given in words; binding and its absence hold for the method and conditions named. In cells and extracts the contact can be indirect. Some entries that bind do so weakly or less than the wild type.

Sequences of proteins named here, by UniProt entry; tags and fusion partners are left off.
UniProt O00401: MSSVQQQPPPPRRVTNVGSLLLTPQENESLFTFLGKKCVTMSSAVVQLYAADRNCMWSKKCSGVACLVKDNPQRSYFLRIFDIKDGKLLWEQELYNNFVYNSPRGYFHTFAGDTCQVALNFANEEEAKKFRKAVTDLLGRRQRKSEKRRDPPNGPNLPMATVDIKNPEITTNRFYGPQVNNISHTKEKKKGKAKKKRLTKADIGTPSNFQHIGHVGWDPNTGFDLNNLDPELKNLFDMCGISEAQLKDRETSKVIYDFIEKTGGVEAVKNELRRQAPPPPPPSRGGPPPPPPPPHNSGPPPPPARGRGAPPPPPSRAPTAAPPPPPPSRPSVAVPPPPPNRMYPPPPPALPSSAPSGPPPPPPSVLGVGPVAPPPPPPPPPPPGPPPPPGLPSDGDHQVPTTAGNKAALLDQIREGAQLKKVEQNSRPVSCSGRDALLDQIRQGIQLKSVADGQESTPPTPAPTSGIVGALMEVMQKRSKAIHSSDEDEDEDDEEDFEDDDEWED

What was measured:
[1] = target: T1, Claudin-5 (endogenous, MDA-MB-231^pEF6 control cells) (human (endogenous in MDA-MB-231)) (UniProt O00501); assay: co-IP; cell lysate precipitated with anti-Claudin-5 antibody (1:100, 2 h) and protein A/G agarose beads overnight; immunoblot for N-WASP and ROCK 1
T1 sequence: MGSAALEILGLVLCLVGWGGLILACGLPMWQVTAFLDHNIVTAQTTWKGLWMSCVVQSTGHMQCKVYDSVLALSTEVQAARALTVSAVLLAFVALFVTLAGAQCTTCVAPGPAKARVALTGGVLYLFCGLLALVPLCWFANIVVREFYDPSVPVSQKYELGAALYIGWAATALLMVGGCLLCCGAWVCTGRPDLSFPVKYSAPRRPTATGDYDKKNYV

[2] = target: T2, Claudin-5 (over-expressed, MDA-MB-231^CL5exp cells) (human) (UniProt O00501); assay: as above
T2 sequence: T1 sequence

Neuronal Wiskott-Aldrich syndrome protein (from UniProt O00401 1-505)
binding [1]: binds | binding [2]: binds
